{"source": "paper PMC11676817", "about": "“Antiproliferative and Morphological Analysis Triggered by Drugs Contained in the Medicines for Malaria Venture COVID-Box Against Toxoplasma gondii Tachyzoites” (Microorganisms, 2024)", "key": {"[1]": {"test_system": "Toxoplasma gondii tachyzoites of the RH strain", "experiment": "microbe, parasite or virus in culture", "assay_type": "cell-based", "settings": "24 h, read-out: Inhibition of parasite proliferation"}, "[2]": {"test_system": "Toxoplasma gondii tachyzoites of the RH strain", "experiment": "microbe, parasite or virus in culture", "settings": "168 h, read-out: IC50 against T. gondii proliferation"}}}
{"compound": "CO[C@@H]1[C@H](N(C)C(=O)c2ccccc2)C[C@H]2O[C@]1(C)n1c3ccccc3c3c4c(c5c6ccccc6n2c5c31)C(=O)NC4", "note": "[Midostaurin]", "values": [{"measurement": "inhibition at […]", "setting": "[1]", "value": "75 to 80", "unit": "%"}, {"measurement": "IC50", "setting": "[2]", "value": "< 100", "unit": "nM"}]}
